Assay results: the supplement of paper PMC8728848
This is one part of the list.

Tests used:
Experiment in all cases: glycan array binding signal (z-score within array); higher = stronger binding
Conditions in all cases: glycan notation: IUPAC condensed, linker removed
[1] = molecular target: Gal(b1-3)GlcNAc(b1-3)Gal(b1-4)GlcNAc(b1-2)[Gal(b1-3)GlcNAc(b1-3)Gal(b1-4)GlcNAc(b1-6)]Man(a1-6)[Gal(b1-3)GlcNAc(b1-3)Gal(b1-4)GlcNAc(b1-2)Man(a1-3)]Man(b1-4)GlcNAc(b1-4)[Fuc(a1-6)]GlcNAc
How it was run: (§1)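 Arrays were curated from the Consortium for Functional Glycomics database, 3228 in total, and kept only where the protein sequence was available. Binding is expressed as a within-array Z-score. This score was averaged across arrays of the same protein sequence at different concentrations or buffers and across linkers, and negative values can be read as non-binding.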

[2] = molecular target: Gal(b1-3)GlcNAc(b1-3)Gal(b1-4)GlcNAc(b1-3)Gal(b1-4)GlcNAc(b1-2)[Gal(b1-3)GlcNAc(b1-3)Gal(b1-4)GlcNAc(b1-3)Gal(b1-4)GlcNAc(b1-6)]Man(a1-6)[Gal(b1-3)GlcNAc(b1-3)Gal(b1-4)GlcNAc(b1-3)Gal(b1-4)GlcNAc(b1-2)Man(a1-3)]Man(b1-4)GlcNAc(b1-4)[Fuc(a1-6)]GlcNAc
How it was run: as §1

[3] = molecular target: Gal(b1-3)GlcNAc(b1-3)Gal(b1-4)GlcNAc(b1-6)[Gal(b1-3)GlcNAc(b1-3)]Gal(b1-4)Glc
How it was run: as §1

[4] = molecular target: Gal(b1-3)GlcNAc(b1-3)Gal(b1-4)[Fuc(a1-3)]GlcNAc
How it was run: as §1

[5] = molecular target: Gal(b1-3)GlcNAc(b1-3)Gal(b1-4)[Fuc(a1-3)]GlcNAc(b1-6)[Gal(b1-3)GlcNAc(b1-3)]Gal(b1-4)Glc
How it was run: as §1

[6] = molecular target: Gal(b1-3)GlcNAc(b1-3)GalNAc
How it was run: as §1

[7] = molecular target: Gal(b1-3)GlcNAc(b1-6)Gal(b1-4)GlcNAc
How it was run: as §1

[8] = molecular target: Gal(b1-3)GlcNAc(b1-6)GalNAc
How it was run: as §1

[9] = molecular target: Gal(b1-3)GlcNAc(b1-6)[Gal(b1-3)]GalNAc
How it was run: as §1

Gal(b1-3)GlcNAc6S = molecular target: Gal(b1-3)GlcNAc6S
How it was run: as §1

[10] = molecular target: Gal(b1-3)[Fuc(a1-4)]GlcNAc
How it was run: as §1

[11] = molecular target: Gal(b1-3)[Fuc(a1-4)]GlcNAc(b1-2)Man
How it was run: as §1

[12] = molecular target: Gal(b1-3)[Fuc(a1-4)]GlcNAc(b1-2)Man(a1-3)[Gal(b1-3)[Fuc(a1-4)]GlcNAc(b1-2)Man(a1-6)]Man(b1-4)GlcNAc(b1-4)GlcNAc
How it was run: as §1

[13] = molecular target: Gal(b1-3)[Fuc(a1-4)]GlcNAc(b1-2)Man(a1-3)[Gal(b1-3)[Fuc(a1-4)]GlcNAc(b1-2)Man(a1-6)]Man(b1-4)GlcNAc(b1-4)[Fuc(a1-6)]GlcNAc
How it was run: as §1

[14] = molecular target: Gal(b1-3)[Fuc(a1-4)]GlcNAc(b1-3)Gal(b1-3)[Fuc(a1-4)]GlcNAc
How it was run: as §1

[15] = molecular target: Gal(b1-3)[Fuc(a1-4)]GlcNAc(b1-3)Gal(b1-4)GlcNAc
How it was run: as §1

[16] = molecular target: Gal(b1-3)[Fuc(a1-4)]GlcNAc(b1-3)Gal(b1-4)[Fuc(a1-3)]GlcNAc
How it was run: as §1

[17] = molecular target: Gal(b1-3)[Fuc(a1-4)]GlcNAc(b1-6)GalNAc
How it was run: as §1

[18] = molecular target: Gal(b1-3)[GlcNAc(b1-6)]GalNAc
How it was run: as §1

[19] = molecular target: Gal(b1-3)[Neu5Ac(a2-6)]GalNAc
How it was run: as §1

[20] = molecular target: Gal(b1-3)[Neu5Ac(a2-6)]GlcNAc(b1-4)Gal(b1-4)Glc
How it was run: as §1

[21] = molecular target: Gal(b1-3)[Neu5Ac(a2-6)]GlcNAc(b1-6)Gal(b1-4)Glc
How it was run: as §1

[22] = molecular target: Gal(b1-3)[Neu5Ac(b2-6)]GalNAc
How it was run: as §1

Gal(b1-4)Gal = molecular target: Gal(b1-4)Gal
How it was run: as §1

[23] = molecular target: Gal(b1-4)GalNAc(a1-3)[Fuc(a1-2)]Gal(b1-4)GlcNAc
How it was run: as §1

[24] = molecular target: Gal(b1-4)GalNAc(b1-3)[Fuc(a1-2)]Gal(b1-4)GlcNAc
How it was run: as §1

Gal(b1-4)Glc = molecular target: Gal(b1-4)Glc
How it was run: as §1

Gal(b1-4)Glc6S = molecular target: Gal(b1-4)Glc6S
How it was run: as §1

Gal(b1-4)GlcNAc = molecular target: Gal(b1-4)GlcNAc
How it was run: as §1

[25] = molecular target: Gal(b1-4)GlcNAc(a1-6)Gal(b1-4)GlcNAc
How it was run: as §1

Gal(b1-4)GlcNAc(b1-2)Man = molecular target: Gal(b1-4)GlcNAc(b1-2)Man
How it was run: as §1

[26] = molecular target: Gal(b1-4)GlcNAc(b1-2)Man(a1-3)Man(b1-4)GlcNAc(b1-4)GlcNAc
How it was run: as §1

[27] = molecular target: Gal(b1-4)GlcNAc(b1-2)Man(a1-3)[Gal(b1-4)GlcNAc(b1-2)Man(a1-6)]Man(b1-4)GlcNAc(b1-4)GlcNAc
How it was run: as §1

[28] = molecular target: Gal(b1-4)GlcNAc(b1-2)Man(a1-3)[Gal(b1-4)GlcNAc(b1-2)Man(a1-6)]Man(b1-4)GlcNAc(b1-4)[Fuc(a1-6)]GlcNAc
How it was run: as §1

[29] = molecular target: Gal(b1-4)GlcNAc(b1-2)Man(a1-3)[Gal(b1-4)GlcNAc(b1-2)Man(a1-6)][Gal(b1-4)GlcNAc(b1-4)]Man(b1-4)GlcNAc(b1-4)[Fuc(a1-6)]GlcNAc
How it was run: as §1

[30] = molecular target: Gal(b1-4)GlcNAc(b1-2)Man(a1-3)[Gal(b1-4)GlcNAc(b1-2)Man(a1-6)][GlcNAc(b1-4)]Man(b1-4)GlcNAc(b1-4)[Fuc(a1-6)]GlcNAc
How it was run: as §1

[31] = molecular target: Gal(b1-4)GlcNAc(b1-2)Man(a1-3)[Gal(b1-4)GlcNAc(b1-2)][GlcNAc(b1-4)]Man(b1-4)GlcNAc(b1-4)GlcNAc
How it was run: as §1

B1: Flo1 (Saccharomyces cerevisiae), P32768 (protein)
chain: SGATEACLPAGQRKSGMNINFYQYSLKDSSTYSNAAYMAYGYASKTKLGSVGGQTDISIDYNIPCVSSSGTFPCPQEDSYGNWGCKGMGACSNSQGIAYWSTDLFGFYTTPTNVTLEMTGYFLPPQTGSYTFKFATVDDSAILSVGGATAFNCCAQQQPPITSTNFTIDGIKPWGGSLPPNIEGTVYMYAGYYYPMKVVYSNAVSWGTLPISVTLPDGTTVSDDFEGYVYSFDDDLSQSNCTVPDPSNY
In the case of B1, the “glycan array binding signal (z-score)” value [1] is reported as -0.035, the “glycan array binding signal (z-score)” value [2] is reported as 2.69 and the “glycan array binding signal (z-score)” value [3] is reported as -0.31. The “glycan array binding signal (z-score)” value [4] was -0.364, the “glycan array binding signal (z-score)” value [5] was -0.327 and the “glycan array binding signal (z-score)” value [6] was 0.674. For the same binder, the “glycan array binding signal (z-score)” value [7] was -0.495, the “glycan array binding signal (z-score)” value [8] was -0.324 and the “glycan array binding signal (z-score)” value [9] was -0.013. For the same binder, the “glycan array binding signal (z-score)” value (Gal(b1-3)GlcNAc6S) was -0.223, the “glycan array binding signal (z-score)” value [10] was 0.064 and the “glycan array binding signal (z-score)” value [11] was 2.33. The “glycan array binding signal (z-score)” value [12] was 1.95, the “glycan array binding signal (z-score)” value [13] was 1.2 and the “glycan array binding signal (z-score)” value [14] was 0.691. For the same binder, the “glycan array binding signal (z-score)” value [15] was -0.689, the “glycan array binding signal (z-score)” value [16] was -0.075 and the “glycan array binding signal (z-score)” value [17] was 0.217. For the same binder, the “glycan array binding signal (z-score)” value [18] was -0.101, the “glycan array binding signal (z-score)” value [19] was 0.048 and the “glycan array binding signal (z-score)” value [20] was -0.217. For the same binder, the “glycan array binding signal (z-score)” value [21] was 0.543, the “glycan array binding signal (z-score)” value [22] was -0.579 and the “glycan array binding signal (z-score)” value (Gal(b1-4)Gal) was -0.193. For the same binder, the “glycan array binding signal (z-score)” value [23] was -0.352, the “glycan array binding signal (z-score)” value [24] was 0.699 and the “glycan array binding signal (z-score)” value (Gal(b1-4)Glc) was -0.357. For the same binder, the “glycan array binding signal (z-score)” value (Gal(b1-4)Glc6S) was 0.024, the “glycan array binding signal (z-score)” value (Gal(b1-4)GlcNAc) was 0.021 and the “glycan array binding signal (z-score)” value [25] was -0.078. The “glycan array binding signal (z-score)” value (Gal(b1-4)GlcNAc(b1-2)Man) was -0.394, the “glycan array binding signal (z-score)” value [26] was 0.007 and the “glycan array binding signal (z-score)” value [27] was -0.067. For the same binder, the “glycan array binding signal (z-score)” value [28] was 0.883, the “glycan array binding signal (z-score)” value [29] was -0.321 and the “glycan array binding signal (z-score)” value [30] was -0.249. For the same binder, the “glycan array binding signal (z-score)” value [31] was -0.753.
